Values from PubChem BioAssay AID1259308 (NCATS, 2017).

- Screen: 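Candidate targets for better recombinant protein yield in mammalian cells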 (primary screen)
- System: human HEK293 embryonic kidney cells stably expressing firefly luciferase (HEK-CMV-Luc2-Hygro)
- Knock-down reagent: single siRNA against human genes, 0.8 pmol siRNA per well
- Timing: 72 h
- Measurement: 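Luciferase light (ONE-Glo) measured on one replicate plate set and viability (CellTiter-Glo) on the other, scaled to a negative control siRNA, with robust z-scores and luciferase per cell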
- Scale: total luciferase, z-score and total luciferase, % of control: higher = more reporter protein produced; luciferase per cell, z-score: higher = more reporter output per viable cell; viable cells, % of control: higher = more viable cells
- Rule for the call: 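An siRNA counts as active if its total luciferase robust z-score exceeds 3; genes with two or more such siRNAs out of three were retested with fresh siRNAs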
- Meaning of the calls: active = raised luciferase; inactive = no rise
The deposit covers about 59,000 reagents; shown is a random part of them. About 1,510 of all reagents (2.6%) were called active. 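Calls use total luciferase alone and ignore viability, so some active siRNAs may act by altering cell number.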 The numbers tell different reagents against one gene apart. Reagent sequences are not shown.

| gene | siRNA no. | total luciferase, z-score | total luciferase, % of control | luciferase per cell, z-score | viable cells, % of control | call |
| --- | --- | --- | --- | --- | --- | --- |
| LPAR2 (GeneID 9170) | 1 | -1.28 | 56.4 | -0.764 | 77.1 | inactive |
| LPAR2 (GeneID 9170) | 2 | 0.112 | 84.1 | 0.234 | 88.4 | inactive |
| LPAR2 (GeneID 9170) | 3 | -0.0952 | 80 | -0.819 | 111 | inactive |
| OR5B3 (GeneID 441608) | 1 | 2.5 | 132 | 2.74 | 71.6 | inactive |
| OR5B3 (GeneID 441608) | 2 | 0.0174 | 82.2 | -0.176 | 96.2 | inactive |
| OR5B3 (GeneID 441608) | 3 | -0.722 | 67.5 | -1.43 | 110 | inactive |
| PBX4 (GeneID 80714) | 1 | -2.77 | 26.8 | -1.37 | 42.9 | inactive |
| PBX4 (GeneID 80714) | 2 | -0.0663 | 80.6 | -0.844 | 112 | inactive |
| PBX4 (GeneID 80714) | 3 | -0.662 | 68.7 | 0.289 | 71.2 | inactive |
| DNAJC16 (GeneID 23341) | 1 | -0.142 | 79.1 | -0.274 | 94.9 | inactive |
| DNAJC16 (GeneID 23341) | 2 | -0.8 | 66 | -0.475 | 83.5 | inactive |
| DNAJC16 (GeneID 23341) | 3 | -0.296 | 76 | -0.459 | 95.8 | inactive |
| VAV2 (GeneID 7410) | 1 | 0.721 | 96.2 | 1.06 | 81.2 | inactive |
| VAV2 (GeneID 7410) | 2 | 4.27 | 167 | 2.85 | 88 | active |
| VAV2 (GeneID 7410) | 3 | 2.95 | 141 | 2.49 | 81.5 | inactive |
| C6orf15 (GeneID 29113) | 1 | -0.146 | 79 | -0.106 | 90.8 | inactive |
| C6orf15 (GeneID 29113) | 2 | 0.684 | 95.5 | 0.532 | 92.8 | inactive |
| C6orf15 (GeneID 29113) | 3 | 0.319 | 88.2 | 0.223 | 93 | inactive |
| BEGAIN (GeneID 57596) | 1 | 3.44 | 150 | 3.09 | 74.3 | active |
| BEGAIN (GeneID 57596) | 2 | -0.631 | 69.3 | -0.824 | 96.2 | inactive |
| BEGAIN (GeneID 57596) | 3 | -1.45 | 53 | -1.42 | 86.1 | inactive |
| PRR14 (GeneID 78994) | 1 | 1.56 | 113 | 0.829 | 101 | inactive |
| PRR14 (GeneID 78994) | 2 | 0.346 | 88.8 | 0.882 | 78.6 | inactive |
| PRR14 (GeneID 78994) | 3 | 0.984 | 101 | 1.11 | 84.6 | inactive |

Active calls, of those listed so far:
| gene | siRNA no. | total luciferase, z-score | total luciferase, % of control | luciferase per cell, z-score | viable cells, % of control | call |
| --- | --- | --- | --- | --- | --- | --- |
| VAV2 (GeneID 7410) | 2 | 4.27 | 167 | 2.85 | 88 | active |
| BEGAIN (GeneID 57596) | 1 | 3.44 | 150 | 3.09 | 74.3 | active |
